Results: the supplement of paper PMC12889115
The other results are listed elsewhere or left out. Values are raw readings; no control value is given beside them.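 First-pass screen: polymyxin B was added at a level that permeabilizes the Salmonella outer membrane while sparing the inner membrane. DMSO wells, with and without polymyxin B, defined maximum growth. Because plates differed from one another, each plate's data were ranked separately and the compounds with the lowest OD600 were carried forward as hits.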

Test system: Salmonella enterica serovar Typhimurium SL1344
Test: bacterial growth OD600 after 18 h with compound and polymyxin B; higher = more bacterial growth (less inhibition)
Conditions: 50 µM, Mueller-Hinton broth

Structure (SMILES) | bacterial growth OD600 (polymyxin B 0.75 µg/mL) | bacterial growth OD600 (polymyxin B 1 µg/mL)
CCOC(=O)N1CCN(C(=O)c2cc(NC(C)=O)c3c(c2)nc(-c2ccccc2F)n3CC)CC1 | 1.05 | 
COCc1ccc(C(=O)NCc2nc(-c3cccc(NC(=O)C4CCCN(C)C4)c3)oc2C)s1 (stereo not given) | 0.904 | 
Cc1ccccc1N1C(=O)CN(Cc2c(C)n(C)n(-c3ccccc3)c2=O)CC1C (stereo not given) | 0.829 | 
COCc1ccc(C(=O)N2CCc3[nH]nc(-c4ccc(C(F)(F)F)cc4)c3C2)o1 | 0.636 | 
COc1cccc(-c2ccnc(-n3ncc(C(=O)N4CCN(c5ccccc5)CC4)c3C3CC3)n2)c1 | 0.766 | 
OCC1(Cc2ccccc2Cl)CCN(CC#Cc2ccccc2)CC1 |  | 0.503
CCc1csc(CCNC(=O)C2CCC(=O)N(Cc3cccc(C(F)(F)F)c3)C2)n1 (stereo not given) |  | 0.849
COc1cccc(OC)c1CNC1COc2c(cccc2OC)C1 (stereo not given) |  | 0.857
Cc1cc(CNC(=O)Cn2cncn2)c2[nH]c(-c3ccccc3)c(C)c2c1 |  | 0.939
CCn1cc(CNc2nc3nonc3nc2N2CCCCCC2)cn1 |  | 0.883
CC1(C)Cc2nc(N3CCOCC3)ncc2C(NC(=O)CCc2ccccn2)C1 (stereo not given) | 0.866 | 
Cc1nc(C(=O)N2CCOc3ccc(CN4CCN(c5ccc(F)cc5)CC4)cc3C2)cs1 | 0.748 | 
CCOC(=O)C1(C/C=C/c2ccccc2)CCCN(C(=O)C(=O)c2ccccc2)C1 (stereo not given) |  | 0.679
O=C1CCCN1CC1CCN(C(=O)c2ccc(NC3CC3)nc2)CC1 |  | 1.01
COc1ccc(CNC(=O)CCC2CCCN(Cc3cc4ccccc4o3)C2)c(OC)c1 (stereo not given) |  | 1.14
O=C(CCc1ccccc1)N1CCCC(c2[nH]ncc2-c2ccc(F)c(F)c2)C1 (stereo not given) | 0.023 | 
COCC1CCN(CC2(O)CCCN(Cc3ccc(F)cc3)C2=O)CC1 (stereo not given) |  | 1.02
Cc1nc(C(=O)N2CCC(C3(Cc4cccc(F)c4)NC(=O)N(CC(C)C)C3=O)CC2)cs1 (stereo not given) | 0.819 | 
O=C(Cn1cc(NC(=O)COc2ccccc2)cn1)NCCc1ccco1 | 0.972 | 
COC(=O)c1cc(CNC(=O)C2(c3ccccc3)CCCCC2)cc(NC(=O)c2cc(C)nn2C)c1 | 0.537 | 

Part of the list above, tab-delimited:
Structure (SMILES)	bacterial growth OD600 (polymyxin B 0.75 µg/mL)	bacterial growth OD600 (polymyxin B 1 µg/mL)
CC1(C)Cc2nc(N3CCOCC3)ncc2C(NC(=O)CCc2ccccn2)C1 (stereo not given)	0.866	
Cc1nc(C(=O)N2CCOc3ccc(CN4CCN(c5ccc(F)cc5)CC4)cc3C2)cs1	0.748	
